Results are given in words; binding and its absence hold for the method and conditions named.
Assays:
[1] = target: T1, Group B Streptococcus recombinant sortase A SrtA_(ΔN40) (Streptococcus agalactiae strain 515 (serotype Ia)) (UniProt Q8DZY1); assay: SEC-MALS; Superdex 200 PC 3.2/30, eluted isocratically in PBS at 0.1 ml/min; MALS detector on-line, UV at 280 nm; both purified
T1 sequence: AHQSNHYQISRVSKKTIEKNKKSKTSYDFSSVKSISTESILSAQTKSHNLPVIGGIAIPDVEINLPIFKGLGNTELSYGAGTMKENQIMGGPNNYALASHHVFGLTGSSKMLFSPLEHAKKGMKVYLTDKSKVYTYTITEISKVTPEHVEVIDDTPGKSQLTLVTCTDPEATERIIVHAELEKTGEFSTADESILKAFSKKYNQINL

[2] = target: T1, Group B Streptococcus recombinant sortase A SrtA_(ΔN40) (Streptococcus agalactiae strain 515 (serotype Ia)); assay: NMR transverse relaxation time (T2); T2 of SrtA_(ΔN40) as indicator of the overall tumbling rate and size; conditions of this measurement not told; both purified

B1: Group B Streptococcus recombinant sortase A SrtA_(ΔN40) (enzyme, UniProt Q8DZY1 41-247)
chain: AHQSNHYQISRVSKKTIEKNKKSKTSYDFSSVKSISTESILSAQTKSHNLPVIGGIAIPDVEINLPIFKGLGNTELSYGAGTMKENQIMGGPNNYALASHHVFGLTGSSKMLFSPLEHAKKGMKVYLTDKSKVYTYTITEISKVTPEHVEVIDDTPGKSQLTLVTCTDPEATERIIVHAELEKTGEFSTADESILKAFSKKYNQINL
binding [1]: no binding
binding [2]: no binding

Source: publication PMC3186789
